Results on three sequences are retold here after PMC12445080.

For the series, the target named is T1, NolR-His (UniProt P28267).
T1 sequence (looked up, limits assumed): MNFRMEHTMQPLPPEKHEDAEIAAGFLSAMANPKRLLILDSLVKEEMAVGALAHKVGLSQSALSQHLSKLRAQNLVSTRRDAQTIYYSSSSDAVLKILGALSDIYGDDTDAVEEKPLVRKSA
Briefly: EMSA. The settings on record: 5 mM Mg2+, 200 ug/mL salmon sperm DNA, 10 mM Tris-HCl pH 8.0, 1 mM EDTA, 50 mM KCl, 5 mM MgCl2, 1 mM DTT, 5% glycerol, 10 ug/mL BSA, 200 ug/mL sonicated salmon sperm DNA, 2-4 nM probe, recombinant protein, protein details: C-terminal 6xHis (GGGHHHHHH).

The exact form of at least one protein or probe is not confirmed. No signal at the amounts used counts as a negative. Tags and fusion partners may be left off the protein sequences shown.

Consider “GCAATGCTGCAATAATGTCGCCGCTCTTCATCTGATACGACAATACACACGCATGTGTATTCGTCCAATGAATTTGTCAAGCCAATCTAAGGCGGCTTTCTCGGATGGTCTCGAACCGTCGGATCATCAGCTTGTGCTAAAAAAGCCAATATTCATCTCTAACGACCGCCTGGCTGGGACTTCGAAGCGAGTTCGGACGGAGAGTTCATG (double strand) [lpsS upstream (210 bp)]”, for which, where the note is “high protein:probe ratio required, second shift at higher ratios”, the binding result was “binds”.

In the case of “GGGAACGAGTAACCGACATTGGCCGCCATCGATGCGGTGCTTGCCCGATGGGAGGCGGCGATTGAGGACGCAAAGGCGCCGGGCCGCACGCGAGAAGGATCCGCGATAGTGCCGTGGCGGTCTGGATCGCATCGAGGAGTCGAGGTACTCCAGCGTCCCGCCAGAATACCAATTGGTTTGCGCGTGGTCAGTTTTCGCTGGAACTATACTTTACGCCACCACTTGAAAACGAGCGTCGACTCCCATACCCATCCCTTAGATTGTAGTCGGGGGATACATAGTG (double strand) [hna upstream (283 bp)]”, the binding result (protein amount equivalent to nodD1 probe) is listed as “no binding”.

As for “TCAAAGCACGATCGAGAGTGGTGTGTACCCGGCAAGTTACACCGGGGACGCCAACCGTAGCGCTGGACCGTTGGTCGAGCGCTTAGATGACGGCTCTAAATTCGGACCCATCCTGTACTTGTGAAACTTTTCTCGCGCCGCACCTTGATTCCATTAACTTCAGGGTTCTCTAATAGGACTCTGCAAGATTGGTAAAATTGATTGTTTGGATAACGATCATCTGCGATATGGATGCCGCACA (double strand) [nodD1 upstream (241 bp)]”, the binding result (high protein:probe ratio required) is reported as “binds”.
